Laboratory results: PMC7692187, “Rapid In Vivo Validation of HDAC Inhibitor-Based Treatments in Neuroblastoma Zebrafish Xenografts” (Pharmaceuticals, 2020)

Test system: xenografted tumor cells
Assay: Dose response in zebrafish xenografts: relative IC50 from the change in tumor volume
Type: in vivo, human
Conditions: Danio rerio; 48 h treatment from 24 hpi, compared to solvent, drug applied to surrounding water, n = 3–5 fish per concentration
Method: To determine optimal drug concentrations, larvae bearing xenografted tumor cells were incubated with increasing drug concentrations 24 h post implantation (hpi), ranging from the concentrations used in previous cell culture experiments to the MTD(larvae) (Figure 2a). […] Using these concentrations, we evaluated whether HDACis were able to reach their specific enzymatic targets.
Right: representative images of immunohistochemical staining (c) Left: quantification of staining for acetylated histone H3. Right: representative images of immunohistochemical staining.
For treatment, larvae were incubated in freshly prepared buffer solution supplemented with 0.2 mM PTU, containing the drug of interest at increasing concentrations. Drug-containing solutions were administered at the beginning of the experiment and were not replaced during the incubation period. Solvent control was applied in the same manner as the drug treatments.

In the case of `O=C(CCCCCCC(=O)Nc1ccccc1)NO` [vorinostat], the IC50 is reported as 15 µM.
